Laboratory results published in PMC8254828.
These are yes or no findings as the source states them, for the method shown. In cells and extracts the contact can be indirect. Some binding calls cover weakened binding; strength is not graded here. Tags and fused reporters may be left off the sequences shown.

Amino acid sequences for entries named in this document (tags omitted). A change or cut given only in a name is not applied to a line headed by its entry. Chains listed by the source or under a name are the forms on record and can include a tag or linker. Residues count along the entry.
UniProt G5E8K5: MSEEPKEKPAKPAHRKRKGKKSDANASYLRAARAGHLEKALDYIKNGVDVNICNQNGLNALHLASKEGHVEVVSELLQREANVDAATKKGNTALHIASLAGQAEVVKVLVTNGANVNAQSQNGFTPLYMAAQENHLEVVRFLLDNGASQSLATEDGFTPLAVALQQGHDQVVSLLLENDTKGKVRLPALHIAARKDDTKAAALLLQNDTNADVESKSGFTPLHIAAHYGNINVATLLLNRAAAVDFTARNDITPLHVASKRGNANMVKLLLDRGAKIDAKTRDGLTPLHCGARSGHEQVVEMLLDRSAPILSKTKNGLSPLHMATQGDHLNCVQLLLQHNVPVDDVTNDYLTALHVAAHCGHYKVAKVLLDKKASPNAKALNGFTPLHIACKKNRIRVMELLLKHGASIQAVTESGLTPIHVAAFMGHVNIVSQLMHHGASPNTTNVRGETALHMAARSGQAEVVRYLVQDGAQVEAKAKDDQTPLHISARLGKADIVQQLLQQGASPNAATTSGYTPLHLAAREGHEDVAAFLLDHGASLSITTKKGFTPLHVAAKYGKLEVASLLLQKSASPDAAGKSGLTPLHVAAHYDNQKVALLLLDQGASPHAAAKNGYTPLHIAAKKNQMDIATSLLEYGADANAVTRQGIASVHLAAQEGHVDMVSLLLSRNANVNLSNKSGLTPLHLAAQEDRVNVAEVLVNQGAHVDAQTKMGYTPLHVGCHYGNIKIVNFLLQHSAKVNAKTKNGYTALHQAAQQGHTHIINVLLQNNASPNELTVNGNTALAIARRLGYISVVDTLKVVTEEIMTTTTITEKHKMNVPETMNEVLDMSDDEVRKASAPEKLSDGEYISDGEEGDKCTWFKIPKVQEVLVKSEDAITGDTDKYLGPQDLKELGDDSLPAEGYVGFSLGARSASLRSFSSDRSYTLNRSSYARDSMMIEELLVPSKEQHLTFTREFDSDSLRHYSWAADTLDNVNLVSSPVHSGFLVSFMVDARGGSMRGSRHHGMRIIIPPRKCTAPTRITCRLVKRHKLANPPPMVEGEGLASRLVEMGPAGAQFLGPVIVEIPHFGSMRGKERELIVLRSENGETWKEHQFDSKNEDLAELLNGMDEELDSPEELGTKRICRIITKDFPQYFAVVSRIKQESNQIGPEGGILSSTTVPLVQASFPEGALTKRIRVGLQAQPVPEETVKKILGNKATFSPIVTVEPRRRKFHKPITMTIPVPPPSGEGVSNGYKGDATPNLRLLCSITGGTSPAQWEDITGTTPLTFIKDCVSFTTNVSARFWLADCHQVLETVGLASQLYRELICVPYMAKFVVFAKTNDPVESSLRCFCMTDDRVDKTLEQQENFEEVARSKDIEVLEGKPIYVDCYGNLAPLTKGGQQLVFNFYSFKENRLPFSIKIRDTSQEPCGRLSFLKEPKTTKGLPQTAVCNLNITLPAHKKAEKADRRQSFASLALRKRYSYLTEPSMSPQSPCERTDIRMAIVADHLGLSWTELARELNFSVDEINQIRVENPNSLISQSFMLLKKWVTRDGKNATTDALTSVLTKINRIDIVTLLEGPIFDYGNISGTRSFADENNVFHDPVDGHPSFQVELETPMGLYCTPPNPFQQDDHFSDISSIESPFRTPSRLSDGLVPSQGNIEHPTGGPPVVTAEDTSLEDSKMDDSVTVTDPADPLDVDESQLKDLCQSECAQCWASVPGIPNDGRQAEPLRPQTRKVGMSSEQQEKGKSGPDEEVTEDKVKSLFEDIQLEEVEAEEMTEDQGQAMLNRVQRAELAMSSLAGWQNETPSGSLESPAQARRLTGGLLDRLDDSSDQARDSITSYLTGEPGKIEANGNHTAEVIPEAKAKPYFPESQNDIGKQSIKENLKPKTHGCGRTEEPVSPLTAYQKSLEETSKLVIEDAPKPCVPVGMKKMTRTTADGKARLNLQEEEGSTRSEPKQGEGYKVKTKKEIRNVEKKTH
HA-tagged ankyrin-G 1–807 (ankyrin-repeat domain): residues 1-807 of G5E8K5
HA-tagged ankyrin-G 1476–1961 (regulatory domain): residues 1476-1961 of G5E8K5

Key:
3XHA-ankyrin-G F1609R [1] = target: 3XHA-ankyrin-G F1609R (UniProt G5E8K5); experiment: proximity ligation; COS7 cells transfected with 3XFlag-Homer1c and 3XHA-ankyrin-G (WT or point mutants), fixed 24 h after transfection; Duolink In Situ FarRed; confocal images
3XHA-ankyrin-G P1606L [2] = target: 3XHA-ankyrin-G P1606L (UniProt G5E8K5); experiment: as above
[3] = target: 3XHA-ankyrin-G (ankyrin-G 190, wild type) (UniProt G5E8K5); experiment: as above
3XHA-ankyrin-G F1609R [4] = target: 3XHA-ankyrin-G F1609R (UniProt G5E8K5); experiment: co-IP; HEK293T cells transfected with 3XHA-ankyrin-G (full length, fragments or point mutants) and 3XFlag-Homer1c; lysate immunoprecipitated, blots with HA or Flag antibody
[5] = target: HA-tagged ankyrin-G 1–807 (ankyrin-repeat domain) (UniProt G5E8K5); experiment: as above
[6] = target: HA-tagged ankyrin-G 1476–1961 (regulatory domain) (UniProt G5E8K5); experiment: as above
3XHA-ankyrin-G P1606L [7] = target: 3XHA-ankyrin-G P1606L (UniProt G5E8K5); experiment: as above
[8] = target: 3XHA-ankyrin-G (ankyrin-G 190, wild type) (UniProt G5E8K5); experiment: as above

- binding (3XHA-ankyrin-G F1609R [1]): binds
- binding (3XHA-ankyrin-G P1606L [2]): binds
- binding [3]: binds
- binding (3XHA-ankyrin-G F1609R [4]): binds
- binding [5]: binds weakly
- binding [6]: binds
- binding (3XHA-ankyrin-G P1606L [7]): binds
- binding [8]: binds
B1: 3XFlag-Homer1c (protein, UniProt Q9Z2Y3 1-366)
chain: MGEQPIFSTRAHVFQIDPNTKKNWVPTSKHAVTVSYFYDSTRNVYRIISLDGSKAIINSTITPNMTFTKTSQKFGQWADSRANTVYGLGFSSEHHLSKFAEKFQEFKEAARLAKEKSQEKMELTSTPSQESAGGDLQSPLTPESINGTDDERTPDVTQNSEPRAEPTQNALPFPHSAGDRTQALSHASSAISKHWEAELATLKGNNAKLTAALLESTANVKQWKQQLAAYQEEAERLHKRVTELECVSSQANAVHSHKTELNQTVQELEETLKVKEEEIERLKQEIDNARELQEQRDSLTQKLQEVEIRNKDLEGQLSDLEQRLEKSQNEQEAFRSNLKTLLEILDGKIFELTELRDNLAKLLECS
